Measured data: PubChem BioAssay AID743454 (Peter MacCallum Cancer Centre, 2014)

Assay: 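Genes whose loss kills vorinostat-resistant colon cancer cells under vorinostat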 (primary screen)
Cell system: human HCT116-VR colon cancer cells, selected for vorinostat resistance
Knock-down reagent: siRNA pool against human genes, 40 nM siRNA pool
Time to read-out: vorinostat for 24 h, read-out about 72 h after transfection
Treatment: vorinostat at 2.5 µM final
Measured: 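Cell viability by CellTiter-Fluor and caspase 3/7 activity by luminescence, each scaled to mock wells per plate, duplicates averaged, then robust z-scored over all plates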
Reading the numbers: viability robust z-score: higher = more viable cells than screen typical; caspase robust z-score: higher = more caspase 3/7 activity than screen typical
Hit rule: 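Hits are knock-downs in viability class RV1/RV2 or caspase class CA1/CA2, excluding ones that killed cells in the no-drug cell-count arm; hits then retested with single siRNAs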
In all, the deposit lists about 18,000 reagents; this is an unselected part. In the full data, 450 (2.5%) got an active call. 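Single biological run; no consistent viability z cut-off exists, so the class columns, not z-scores, define the calls.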

| viability hit class | caspase hit class | viability robust z-score | caspase robust z-score | Call | gene knocked down |
| --- | --- | --- | --- | --- | --- |
| no change | no change | -2.09 | -1.42 | inactive | XAGE2 (X antigen family member 2) |
| no change | no change | 0.7 | 0.34 | inactive | RIGI (RNA sensor RIG-I) |
| no change | no change | 1.17 | -1.21 | inactive | FAM219A (family with sequence similarity 219 member A) |
| no change | no change | 0.1 | -0.24 | inactive | POLI (DNA polymerase iota) |
| no change | no change | -3.67 | 3.98 | inactive | SF3B3 (splicing factor 3b subunit 3) |
| no change | CA2 (caspase activation) | -2.74 | 5.41 | active | KCNMB3 |
| no change | no change | -0.34 | 0.22 | inactive | DEFB116 (defensin beta 116) |
| no change | no change | 1.06 | 1.29 | inactive | ACTN1 (actinin alpha 1) |
| no change | no change | -0.59 | -0.78 | inactive | FARSB (phenylalanyl-tRNA synthetase subunit beta) |
| no change | no change | 0.86 | -0.8 | inactive | REXO1L1P (REXO1 like 1, pseudogene) |
| no change | no change | 0.12 | 1.6 | inactive | COX20 (cytochrome c oxidase assembly factor COX20) |
| no change | no change | 0.45 | 2.21 | inactive | RXRA (retinoid X receptor alpha) |
| no change | no change | 0.19 | -0.7 | inactive | GEMIN6 (gem nuclear organelle associated protein 6) |
| no change | no change | 0.1 | 1.56 | inactive | DENND6A (DENN domain containing 6A) |
| no change | no change | 1.36 | -0.45 | inactive | FNBP1 (formin binding protein 1) |
| no change | no change | 0.7 | 0.07 | inactive | ENO3 (enolase 3) |
| no change | no change | -0.44 | -0.28 | inactive | CYP2C19 (cytochrome P450 family 2 subfamily C member 19) |
| no change | no change | 0.28 | 0.12 | inactive | SOD2 (superoxide dismutase 2) |
| no change | no change | -0.13 | -0.22 | inactive | YEATS4 (YEATS domain containing 4) |
| no change | no change | 0.41 | 0.56 | inactive | FKBP2 (FKBP prolyl isomerase 2) |
| no change | no change | -0.74 | -0.68 | inactive | H2BW1 (H2B.W histone 1) |
| no change | no change | 0.9 | -0.66 | inactive | TSHR (thyroid stimulating hormone receptor) |
| no change | no change | -1.51 | -0.4 | inactive | ARG1 (arginase 1) |
| no change | no change | 0.04 | -0.36 | inactive | SOX7 (SRY-box transcription factor 7) |
| no change | no change | -0.1 | 0.26 | inactive | SPATA31A7 (SPATA31 subfamily A member 7) |
| no change | no change | -1.33 | 1.08 | inactive | OASL (2'-5'-oligoadenylate synthetase like) |
| no change | no change | -0.18 | -0.16 | inactive | POLQ (DNA polymerase theta) |
| no change | no change | 0.7 | 0.18 | inactive | NDUFAF3 (NADH:ubiquinone oxidoreductase complex assembly factor 3) |
| no change | no change | 1.06 | -0.32 | inactive | REL (REL proto-oncogene, NF-kB subunit) |
| no change | no change | 0 | 3.64 | inactive | MARCHF4 (membrane associated ring-CH-type finger 4) |
| no change | no change | -0.8 | -1.09 | inactive | NIPSNAP3B (nipsnap homolog 3B) |
| no change | no change | -0.36 | -0.5 | inactive | ISG20 (interferon stimulated exonuclease gene 20) |
| no change | no change | -0.22 | -0.32 | inactive | DLG1 (discs large MAGUK scaffold protein 1) |
| no change | no change | -0.16 | -0.62 | inactive | ZNF142 (zinc finger protein 142) |
| no change | no change | 0.49 | -0.24 | inactive | ALPK3 (alpha kinase 3) |
| no change | no change | -2.06 | 4.3 | inactive | MTERF4 (mitochondrial transcription termination factor 4) |
| no change | no change | 1.26 | 0.17 | inactive | CATSPERB (catsper channel auxiliary subunit beta) |
| no change | no change | 1.25 | 0.38 | inactive | SREK1IP1 (SREK1 interacting protein 1) |
| no change | no change | -0.62 | 0.1 | inactive | BAG6 (BAG cochaperone 6) |
| no change | CA1 (caspase activation) | -1.46 | 10.8 | active | RNF186 (ring finger protein 186) |
| no change | no change | 1.3 | 1.6 | inactive | CHD3 (chromodomain helicase DNA binding protein 3) |
| no change | no change | 0.67 | -0.48 | inactive | TMEM232 (transmembrane protein 232) |
| no change | no change | 0.52 | -0.31 | inactive | VCAM1 (vascular cell adhesion molecule 1) |
| no change | no change | 1.41 | -0.75 | inactive | DRAM1 (DNA damage regulated autophagy modulator 1) |
| no change | no change | 0.9 | -0.36 | inactive | USH1C (USH1 protein network component harmonin) |
| no change | no change | 1.51 | -0.19 | inactive | ZNF826P (zinc finger protein 826, pseudogene) |
| no change | no change | 0.32 | -0.22 | inactive | MYO18B (myosin XVIIIB) |
| no change | no change | -0.01 | -0.74 | inactive | MRPS18B (mitochondrial ribosomal protein S18B) |
| no change | no change | -0.72 | -0.8 | inactive | TFAP2E (transcription factor AP-2 epsilon) |
| no change | no change | -1.71 | 4.98 | inactive | RNF157 (ring finger protein 157) |
| no change | no change | -1.47 | 1.23 | inactive | TRIAP1 (TP53 regulated inhibitor of apoptosis 1) |
| no change | no change | 0.28 | -1.17 | inactive | CST4 (cystatin S) |
| no change | no change | -1.53 | -1.04 | inactive | ABCG4 (ATP binding cassette subfamily G member 4) |
| no change | no change | -0.16 | -0.84 | inactive | ZNF395 (zinc finger protein 395) |
| no change | no change | -0.39 | 2.06 | inactive | GPR68 (G protein-coupled receptor 68) |
| no change | no change | 1.49 | 2.04 | inactive | SOHLH1 |
| no change | no change | 1.04 | -0.07 | inactive | GMPPB (GDP-mannose pyrophosphorylase B) |

Part of the list above in another layout.
viability hit class,caspase hit class,viability robust z-score,caspase robust z-score,Call,gene knocked down
no change,no change,-1.71,4.98,inactive,RNF157 (ring finger protein 157)
no change,no change,-1.47,1.23,inactive,TRIAP1 (TP53 regulated inhibitor of apoptosis 1)
no change,no change,0.28,-1.17,inactive,CST4 (cystatin S)
no change,no change,-1.53,-1.04,inactive,ABCG4 (ATP binding cassette subfamily G member 4)
no change,no change,-0.16,-0.84,inactive,ZNF395 (zinc finger protein 395)
no change,no change,-0.39,2.06,inactive,GPR68 (G protein-coupled receptor 68)
no change,no change,1.49,2.04,inactive,SOHLH1
no change,no change,1.04,-0.07,inactive,GMPPB (GDP-mannose pyrophosphorylase B)
